In patent publication US7960435B2, “Anti-cancer agents and androgen inhibition activity compound” (University of Maryland, Baltimore, priority 2006, dated 2011):
Some of these results come from one statement about several compounds together.

System: androgen receptor (AR)
Assay: AR protein expression down-regulation in LNCaP cells (Western blot)
Format: cell-based, human
Conditions: 150 μM
Description: All five known ARDAs (FIG. 1) were evaluated for their ability to decrease AR protein expression in a dose dependent manner and dose response curves were generated to determine their EC50 values.
These compounds were further evaluated to determine their EC50 values (from dose response curves).
For immunoblot detection of the AR, LNCaP cells were cultured as described above in T25 flasks. Cells were treated with various concentrations of ARDAs and whole cell lysates were prepared using lysis buffer containing 0.1M Tris, 0.5% Triton X-100, and protease inhibitor. Protein content was determined using the Bradford Assay (Bio-Rad, Hercules, Calif., USA). Protein was subjected to SDS-PAGE (10% acrylamide) and transferred onto nitrocellulose membrane. The blots were blocked overnight in 5% nonfat milk in PBS-T buffer at 4° C. Monoclonal antibody was used against the AR (AR441; sc-7305; Santa Cruz Biotechnology, Santa Cruz, Calif.; 1:500 dilution) at room temperature for one hour. Membranes were then incubated with a goat anti-mouse IgG secondary antibody conjugated to horseradish peroxidase (Bio-Rad cat #170-6516; 1:2000 dilution) at room temperature for one hour. […] Equivalent loading of samples was determined by reprobing membranes with β-actin (Calbiochem, USA). […]

SMILES	AR protein expression effect
Cc1ccc(S(=O)(=O)Nc2ccccc2[N+](=O)[O-])cc1 [Compound 6, [(4-Methylphenyl)sulfonyl](2-nitrophenyl)amine]	less than 50%
Cc1ccc(NS(=O)(=O)c2ccc(C)cc2)cc1 [Compound 11, (4-Methylphenyl)[(4-methylphenyl)sulfonyl]amine]	less than 50%
